Taken from: PubChem BioAssay AID1259425 (University of Nebraska Medical Center, 2018)
Here is a random part of about 14,000 reagents. Reagents against one gene are numbered here. Further read-outs or replicates are left out here. The record does not give: the time to read-out.

Assay: 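Compare each knockdown with KSR1 silencing using changes in marker transcripts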 (primary screen)
System: HCT116 human colon cancer cells
Reagents: siRNA pool against human genes, 50 nM siRNA
Read-out: 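mRNA of six signature genes measured together by branched-DNA assay after 50 nM siRNA pool, blank removed, divided by geometric mean of two housekeeping genes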
Reading the numbers: BNIP3L mRNA: higher = more BNIP3L transcript after knockdown

The opening 2 entries, to show the layout:
{"gene symbol": "RTKN", "reagent no.": 1, "BNIP3L mRNA, set 1": 0.137}
{"gene symbol": "SETMAR", "reagent no.": 1, "BNIP3L mRNA, set 1": 0.0819}

Main list, repeating the preview:
{"gene symbol": "RTKN", "reagent no.": 1, "BNIP3L mRNA, set 1": 0.137}
{"gene symbol": "SETMAR", "reagent no.": 1, "BNIP3L mRNA, set 1": 0.0819}
{"gene symbol": "RRAD", "reagent no.": 1, "BNIP3L mRNA, set 1": 0.171}
{"gene symbol": "ZDHHC3", "reagent no.": 1, "BNIP3L mRNA, set 1": 0.0781}
{"gene symbol": "ZDHHC3", "reagent no.": 2, "BNIP3L mRNA, set 1": 0.461}
{"gene symbol": "NUP155", "reagent no.": 1, "BNIP3L mRNA, set 1": 0.0941}
{"gene symbol": "ATP5MJ", "reagent no.": 1, "BNIP3L mRNA, set 1": 0.165}
{"gene symbol": "PIGC", "reagent no.": 1, "BNIP3L mRNA, set 1": 0.12}
{"gene symbol": "MAP3K1", "reagent no.": 1, "BNIP3L mRNA, set 1": 0.111}
{"gene symbol": "TCF19", "reagent no.": 1, "BNIP3L mRNA, set 1": 0.133}
{"gene symbol": "GLUL", "reagent no.": 1, "BNIP3L mRNA, set 1": 0.137}
{"gene symbol": "TBC1D8", "reagent no.": 1, "BNIP3L mRNA, set 1": 0.192}
